Values quoted from earlier work as cited in patent US6416793B1, “Formulations and use of controlled-release indole alkaloids” (BioResponse, L.L.C., priority 2000, dated 2002).
Some entries share one result that the patent states for a list of compounds.

Conditions: oral, without special formulation

COC(=O)[C@H]1[C@H]2C[C@H]3c4[nH]c5ccccc5c4CCN3C[C@H]2CC[C@@H]1O [rauwolscine]
bioavailability: less than 30%
